Some of the results follow.
These compounds were tested on Caenorhabditis elegans N2 (assay: aldicarb interaction hit call (worm growth perturbed in combination with 10 uM aldicarb in both replicates, no effect as single agent) (binary (1 = interacts)); higher = interacts with aldicarb (growth perturbed)). Settings: first compound 1.5 µM; aldicarb concentration 10 µM; 6 days; 20 °C.

Question: How did the “aldicarb interaction hit call” value turn out when `O=C(c1ccco1)N(C(=O)c1ccco1)c1ccc(I)cn1` [wact-162] + CNC(=O)O/N=C/C(C)(C)SC [aldicarb] was run?
Answer: The value was inactive: 0.

Question: `CCOC(=O)Cc1nc(-c2ccc(Cl)cc2)cs1` [wact-481] + CNC(=O)O/N=C/C(C)(C)SC [aldicarb] was tested. Which “aldicarb interaction hit call” value did it give?
Answer: Its value is inactive: 0.

Question: How did the “aldicarb interaction hit call” value turn out when `Oc1c(Cl)cc(Cl)cc1/C=N/Nc1ccccc1` [wact-420] + CNC(=O)O/N=C/C(C)(C)SC [aldicarb] was run?
Answer: Its value is inactive: 0.

Question: For `Clc1ccc(-c2nc(-c3ccccn3)no2)cc1` [wact-58] + CNC(=O)O/N=C/C(C)(C)SC [aldicarb], which “aldicarb interaction hit call” value is on record?
Answer: Its value is inactive: 0.

Question: For `O=C(NCCc1cscn1)c1csc2nc(-c3cccc(Cl)c3)cn12` [wact-256] + CNC(=O)O/N=C/C(C)(C)SC [aldicarb], which “aldicarb interaction hit call” value is on record?
Answer: The value was inactive: 0.

Question: How did the “aldicarb interaction hit call” value turn out when `CNCc1ccc(-c2cc(Cl)cc(Cl)c2)o1` [wact-196] + CNC(=O)O/N=C/C(C)(C)SC [aldicarb] was run?
Answer: Its value is inactive: 0.

Question: How did the “aldicarb interaction hit call” value turn out when `c1coc(-c2nc(-c3cccs3)no2)c1` [wact-175] + CNC(=O)O/N=C/C(C)(C)SC [aldicarb] was run?
Answer: Its value is inactive: 0.

Question: Which “aldicarb interaction hit call” value does the source give for `Fc1ccc(CN2CCCN(Cc3nc(-c4ccc5c(c4)OCO5)no3)CC2)cc1` [wact-295] + CNC(=O)O/N=C/C(C)(C)SC [aldicarb] here?
Answer: Its value is inactive: 0.

Question: Which “aldicarb interaction hit call” value does the source give for `O=C(Oc1ccc(Br)cc1)c1cccs1` [wact-401] + CNC(=O)O/N=C/C(C)(C)SC [aldicarb] here?
Answer: Its value is inactive: 0.

Question: With `O=C(Nc1nc2ccccc2[nH]1)c1ccco1` [wact-626] + CNC(=O)O/N=C/C(C)(C)SC [aldicarb] as the compound, how does the “aldicarb interaction hit call” value read?
Answer: The value was inactive: 0.

Question: Which “aldicarb interaction hit call” value does the source give for `COC1CCN(Cc2nc(-c3ccc(-c4ccccc4)cc3)oc2C)CC1` [wact-281] + CNC(=O)O/N=C/C(C)(C)SC [aldicarb] here?
Answer: The value was inactive: 0.

Question: For `COc1ccc(C(=O)Nc2ccc(F)cc2F)cc1` [wact-591] + CNC(=O)O/N=C/C(C)(C)SC [aldicarb], which “aldicarb interaction hit call” value is on record?
Answer: The value was inactive: 0.

Question: How did the “aldicarb interaction hit call” value turn out when `Fc1cc(Cl)c(-c2nc(-c3ccncc3)no2)cc1F` [wact-156] + CNC(=O)O/N=C/C(C)(C)SC [aldicarb] was run?
Answer: Its value is active: 1.

Question: For `CCn1cc(CN2CCCC(C(=O)c3ccc(-c4ccccc4)c(F)c3)C2)cn1` (configuration not stated) [wact-291] + CNC(=O)O/N=C/C(C)(C)SC [aldicarb], which “aldicarb interaction hit call” value is on record?
Answer: Its value is inactive: 0.

Question: With `O=C(Nc1ccc(Oc2ccc(Br)cc2)cc1)c1ccccc1[N+](=O)[O-]` [wact-66] + CNC(=O)O/N=C/C(C)(C)SC [aldicarb] as the compound, how does the “aldicarb interaction hit call” value read?
Answer: Its value is inactive: 0.

Question: `Fc1ccc(-c2cnc3ccccc3n2)cc1` [wact-457] + CNC(=O)O/N=C/C(C)(C)SC [aldicarb] was tested. Which “aldicarb interaction hit call” value did it give?
Answer: The value was inactive: 0.

Question: How did the “aldicarb interaction hit call” value turn out when `O=C(c1cccs1)N1CCN(c2ccc([N+](=O)[O-])cc2)CC1` [wact-364] + CNC(=O)O/N=C/C(C)(C)SC [aldicarb] was run?
Answer: The value was inactive: 0.

Question: With `CC(Oc1ccc(Br)cc1)C(=O)O/N=C(\N)c1ccncc1` (configuration not stated) [wact-104] + CNC(=O)O/N=C/C(C)(C)SC [aldicarb] as the compound, how does the “aldicarb interaction hit call” value read?
Answer: Its value is inactive: 0.

Question: For `O=[N+]([O-])c1ccc(CSc2ccc(Cl)cc2)cc1` [wact-3] + CNC(=O)O/N=C/C(C)(C)SC [aldicarb], which “aldicarb interaction hit call” value is on record?
Answer: Its value is inactive: 0.

Question: How did the “aldicarb interaction hit call” value turn out when `CC(C)(C)c1ccc(OCCNC(=O)c2ccccc2[N+](=O)[O-])cc1` [wact-427] + CNC(=O)O/N=C/C(C)(C)SC [aldicarb] was run?
Answer: Its value is inactive: 0.

Question: How did the “aldicarb interaction hit call” value turn out when `Cc1ccc(C(=O)Nc2ccc(N3CCN(C)CC3)c(Cl)c2)cc1C` [wact-562] + CNC(=O)O/N=C/C(C)(C)SC [aldicarb] was run?
Answer: Its value is inactive: 0.

Question: How did the “aldicarb interaction hit call” value turn out when `S=C(Nc1ccccc1)Nc1ccccc1-c1ccccc1NC(=S)Nc1ccccc1` [wact-470] + CNC(=O)O/N=C/C(C)(C)SC [aldicarb] was run?
Answer: Its value is inactive: 0.

Question: How did the “aldicarb interaction hit call” value turn out when `COc1cc(CNCc2cccnc2)ccc1OCc1ccc(Cl)cc1Cl.Cl` [wact-531] + CNC(=O)O/N=C/C(C)(C)SC [aldicarb] was run?
Answer: Its value is inactive: 0.

Question: Which “aldicarb interaction hit call” value does the source give for `COc1ccc(NC(=O)N2CCCC(C(=O)c3ccc4ccccc4c3)C2)cc1` (configuration not stated) [wact-333] + CNC(=O)O/N=C/C(C)(C)SC [aldicarb] here?
Answer: The value was inactive: 0.

Question: With `O=C(c1ccc2oc(CCCc3ccccc3)nc2c1)N1CCC(c2ccncc2)CC1` [wact-311] + CNC(=O)O/N=C/C(C)(C)SC [aldicarb] as the compound, how does the “aldicarb interaction hit call” value read?
Answer: Its value is inactive: 0.

Question: How did the “aldicarb interaction hit call” value turn out when `CCC(=O)NC(=S)Nc1ccc(CC)cc1` [wact-479] + CNC(=O)O/N=C/C(C)(C)SC [aldicarb] was run?
Answer: The value was inactive: 0.

Question: `C#CCSc1nnc(-c2ccc(Br)cc2)o1` [wact-209] + CNC(=O)O/N=C/C(C)(C)SC [aldicarb] was tested. Which “aldicarb interaction hit call” value did it give?
Answer: The value was inactive: 0.

Question: With `O=[N+]([O-])c1ccc(NC(=S)NCc2ccc(F)cc2)cc1` [wact-467] + CNC(=O)O/N=C/C(C)(C)SC [aldicarb] as the compound, how does the “aldicarb interaction hit call” value read?
Answer: Its value is inactive: 0.

Question: Which “aldicarb interaction hit call” value does the source give for `COc1cc(NC(=O)COc2cc(C)ccc2C)c(C(=O)O)cc1OC` [wact-478] + CNC(=O)O/N=C/C(C)(C)SC [aldicarb] here?
Answer: The value was inactive: 0.

Question: For `CCc1cc(I)ccc1NC(=S)NC(C)=O` [wact-538] + CNC(=O)O/N=C/C(C)(C)SC [aldicarb], which “aldicarb interaction hit call” value is on record?
Answer: Its value is inactive: 0.

Question: How did the “aldicarb interaction hit call” value turn out when `Cc1ccccc1C(=O)NCCSC1CCCCC1` [wact-494] + CNC(=O)O/N=C/C(C)(C)SC [aldicarb] was run?
Answer: The value was inactive: 0.

Question: How did the “aldicarb interaction hit call” value turn out when `Cc1ccccc1-c1nc(-c2ccccc2)no1` [wact-131] + CNC(=O)O/N=C/C(C)(C)SC [aldicarb] was run?
Answer: Its value is inactive: 0.

Question: How did the “aldicarb interaction hit call” value turn out when `CCCCOC(=O)Nc1ccc([N+](=O)[O-])cc1` [wact-419] + CNC(=O)O/N=C/C(C)(C)SC [aldicarb] was run?
Answer: Its value is inactive: 0.

Question: Which “aldicarb interaction hit call” value does the source give for `CCOc1ccc(C(=O)/C=C/c2ccc(F)cc2)cc1` [wact-414] + CNC(=O)O/N=C/C(C)(C)SC [aldicarb] here?
Answer: The value was active: 1.

Question: Which “aldicarb interaction hit call” value does the source give for `CCc1ccccc1Nc1nc(-c2ccncc2)cs1` [wact-475] + CNC(=O)O/N=C/C(C)(C)SC [aldicarb] here?
Answer: The value was inactive: 0.

Question: How did the “aldicarb interaction hit call” value turn out when `C#CCOc1c(Cl)cc(/C=C(\Cl)c2nc(-c3ccsc3)no2)cc1OC` [wact-347] + CNC(=O)O/N=C/C(C)(C)SC [aldicarb] was run?
Answer: Its value is inactive: 0.

Question: With `Cc1ccc(-n2cc(CNCCc3cscn3)c(-c3ccc(F)cc3)n2)cc1` [wact-301] + CNC(=O)O/N=C/C(C)(C)SC [aldicarb] as the compound, how does the “aldicarb interaction hit call” value read?
Answer: Its value is inactive: 0.

Reference: the supplement of paper PMC5393889
